Experimental data: article PMC10856354 (International Journal of Molecular Sciences, 2024)

Assay: general procedure: Fmoc solid-phase peptide synthesis; H-L-Cys(Acm)-2-chlorotrityl resin (substitution 0.40 mmol/g); HOBt/DIC
Details: whole synthesis, scale of the general procedure 250 mg resin with a 0.4 mmol/g loading; for final HPLC purity: RP-HPLC, UV trace (system 2, Symmetry C18)

DOTA(tris(^tBu))-Ala^1-Gly^2-Cys(Acm)^3-Lys(Boc)^4-Asn(Trt)^5-Cys(Trt)^6-Phe^7-DTrp(Boc)^8-Lys(Boc)^9-Thr(^tBu)^10-Cys(Trt)^11-Thr(^tBu)^12-Ser(^tBu)^13-Cys(Acm)^14
final HPLC purity: 94%
isolated yield: 27%

DOTA(tris(^tBu))-Ala^1-Gly^2-Cys(Acm)^3-Lys(Boc)^4-Cys(Trt)^5-Phe^6-Phe^7-DTrp(Boc)^8-Lys(Boc)^9-Thr(^tBu)^10-Phe^11-Cys(Trt)^12-Ser(^tBu)^13-Cys(Acm)^14
final HPLC purity: >93%
isolated yield (overall): 27%
